No constants are given. Whether binding was seen depends on the method and setting. In cells and extracts the contact can be indirect. Some entries that bind do so weakly or less than the wild type.
Experiments:
[1] = molecular target: FLAG-tagged wild-type PIH1D1 (UniProt Q9NWS0); experiment: co-IP; HEK293T cells transfected with FLAG PIH1D1 WT or KA; IP buffer (50 mM Tris-HCl pH 7.5, 150 mM NaCl, 1% Triton X-100, EtBr 50 μg/ml), anti-FLAG M2 affinity gel 2 h; immunoblot for RAD50, MRE11, NBS1
[2] = molecular target: FLAG-tagged PIH1D1 K64A phospho-binding mutant (UniProt Q9NWS0); experiment: as above

Sequences of proteins named here, by UniProt entry; tags and fusion partners are left off. A change or cut given only in a name is not applied to a line headed by its entry.
UniProt Q9NWS0: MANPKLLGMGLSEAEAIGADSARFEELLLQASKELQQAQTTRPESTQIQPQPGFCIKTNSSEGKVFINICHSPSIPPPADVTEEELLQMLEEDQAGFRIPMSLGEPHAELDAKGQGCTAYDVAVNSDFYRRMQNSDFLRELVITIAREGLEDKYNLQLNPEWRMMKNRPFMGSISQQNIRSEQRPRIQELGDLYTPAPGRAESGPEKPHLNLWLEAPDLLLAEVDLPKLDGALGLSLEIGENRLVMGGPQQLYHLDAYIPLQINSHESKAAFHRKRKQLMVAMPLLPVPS
UniProt O60934: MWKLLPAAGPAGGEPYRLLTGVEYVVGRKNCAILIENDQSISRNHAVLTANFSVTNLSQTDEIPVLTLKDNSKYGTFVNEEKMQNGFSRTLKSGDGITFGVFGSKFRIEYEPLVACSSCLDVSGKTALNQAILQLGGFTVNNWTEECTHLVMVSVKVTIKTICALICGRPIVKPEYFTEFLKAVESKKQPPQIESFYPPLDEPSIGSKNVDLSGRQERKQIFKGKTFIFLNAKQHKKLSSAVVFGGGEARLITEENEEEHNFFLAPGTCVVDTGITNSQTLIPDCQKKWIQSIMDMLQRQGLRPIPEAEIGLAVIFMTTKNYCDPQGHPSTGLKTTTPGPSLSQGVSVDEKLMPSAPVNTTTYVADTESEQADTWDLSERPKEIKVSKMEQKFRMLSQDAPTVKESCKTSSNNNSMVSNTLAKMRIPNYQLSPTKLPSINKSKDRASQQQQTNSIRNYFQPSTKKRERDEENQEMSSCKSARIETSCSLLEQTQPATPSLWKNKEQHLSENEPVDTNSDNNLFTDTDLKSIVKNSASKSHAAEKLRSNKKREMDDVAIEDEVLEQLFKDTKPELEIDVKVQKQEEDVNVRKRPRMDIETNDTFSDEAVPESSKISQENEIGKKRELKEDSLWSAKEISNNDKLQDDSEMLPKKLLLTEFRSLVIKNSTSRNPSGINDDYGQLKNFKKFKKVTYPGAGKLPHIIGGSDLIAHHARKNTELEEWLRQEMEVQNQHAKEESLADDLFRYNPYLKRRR
UniProt Q92878: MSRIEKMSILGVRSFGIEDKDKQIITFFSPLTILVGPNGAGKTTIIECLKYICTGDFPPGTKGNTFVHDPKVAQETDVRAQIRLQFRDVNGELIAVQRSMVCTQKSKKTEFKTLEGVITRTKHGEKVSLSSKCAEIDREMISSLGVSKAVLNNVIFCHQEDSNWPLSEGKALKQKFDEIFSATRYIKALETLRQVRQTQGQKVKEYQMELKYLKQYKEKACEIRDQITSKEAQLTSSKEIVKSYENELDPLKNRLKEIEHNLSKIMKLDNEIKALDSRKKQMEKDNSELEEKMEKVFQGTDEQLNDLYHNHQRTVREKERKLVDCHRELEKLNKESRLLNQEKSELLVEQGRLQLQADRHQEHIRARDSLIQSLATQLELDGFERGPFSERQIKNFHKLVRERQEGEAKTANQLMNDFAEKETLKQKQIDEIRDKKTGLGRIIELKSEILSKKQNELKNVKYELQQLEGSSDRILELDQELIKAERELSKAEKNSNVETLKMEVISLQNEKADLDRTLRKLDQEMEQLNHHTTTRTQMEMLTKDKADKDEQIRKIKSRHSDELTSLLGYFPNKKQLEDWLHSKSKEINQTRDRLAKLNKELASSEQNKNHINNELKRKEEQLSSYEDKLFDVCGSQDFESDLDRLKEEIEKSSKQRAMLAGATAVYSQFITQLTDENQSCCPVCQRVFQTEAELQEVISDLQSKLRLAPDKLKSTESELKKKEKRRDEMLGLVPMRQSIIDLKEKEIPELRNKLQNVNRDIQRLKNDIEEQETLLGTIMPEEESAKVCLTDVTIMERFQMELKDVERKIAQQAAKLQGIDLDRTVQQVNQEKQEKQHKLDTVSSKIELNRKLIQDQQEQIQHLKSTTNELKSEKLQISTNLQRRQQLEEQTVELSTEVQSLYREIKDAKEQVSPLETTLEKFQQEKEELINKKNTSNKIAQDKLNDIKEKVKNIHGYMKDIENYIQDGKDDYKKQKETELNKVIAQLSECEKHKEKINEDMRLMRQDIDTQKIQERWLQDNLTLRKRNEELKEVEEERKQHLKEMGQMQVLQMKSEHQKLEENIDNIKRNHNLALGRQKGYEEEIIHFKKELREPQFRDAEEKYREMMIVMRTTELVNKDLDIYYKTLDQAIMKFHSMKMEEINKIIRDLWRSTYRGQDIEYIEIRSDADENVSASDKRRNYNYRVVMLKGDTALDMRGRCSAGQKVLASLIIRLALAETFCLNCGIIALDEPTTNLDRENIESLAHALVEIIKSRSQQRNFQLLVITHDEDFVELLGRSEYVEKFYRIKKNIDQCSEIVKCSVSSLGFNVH

Row | binding [1] | binding [2] | Substance
1 | binds | no binding | NBS1 (endogenous, HEK293T) (from UniProt O60934 1-754)
2 | binds | no binding | RAD50 (endogenous, HEK293T) (from UniProt Q92878 1-1312)

From PMC5531254, “MRE11 stability is regulated by CK2-dependent interaction with R2TP complex” (Oncogene, 2017)
